In all, about 220,000 compounds went through this assay and about 2,400 (1.1%) were called active. Inconclusive results, whose numbers are uncertain, are shown with a selection of clear calls. The call rests on the fitted dose curve; in most records, active means well fitted inhibition curve with a large enough effect; inconclusive means small, poorly fitted or top-dose-only effect, or effect the other way; inactive means no such curve, though single readings can be large or run the other way. Potencies of inconclusive entries are doubtful fits and often do not repeat.
test: qHTS Multiplex Assay to Identify Dual Action Probes in a Cell Model of Huntington: Aggregate Formation (GFP); conditions: PC12 HttQ103-GFP aggregates, Acumen cytometry, 40 h; activity change, negative = inhibition: at 46.1 µM (top of the series) unless noted; further: nearly all actives have a fitted effect of over 60% in size
How it was run: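 Aggregates are detected as GFP objects 1–25 µm with signal 6 STDEV over background in lysates of induced PC12 cells. These carry Huntingtin exon 1 with 103 glutamines fused to GFP under an ecdysone promoter; compounds titrated.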
On the % scale 0 is the no-effect control and ±100 the full control effect; potency means the concentration at half of the fitted maximal effect.

| SMILES | Potency | activity change, negative = inhibition |
| --- | --- | --- |
| COc1ccc(NC(=O)/C=C/C(=O)O)cc1Cl | inconclusive: 15.8 µM [activator, single point] | – |
| O=C(NCC1CCCCC1)c1cc(S(=O)(=O)N2CCCCC2)ccc1N1CCOCC1 | inconclusive: 1.26 µM [activator, partial curve] | – |
| O=C(c1ccco1)N1CCN(c2nc3ccsc3c(=O)s2)CC1 | inconclusive: 11.2 µM [inhibitor, single point] | – |
| CC(=O)NNc1cccc(Cl)n1 | inactive | – |
| NC(=O)c1ccc[n+](CC(=O)c2ccc(F)cc2)c1 | – | inactive: 20.3% [at 9.22 µM] |
| Cc1ccc(C(=O)NCCN(C)C)c(C)c1 | inconclusive: 0.316 µM [inhibitor, full curve, poor fit] | – |
| CN1C2CCC1CC(OC(=O)c1c[nH]c3ccccc13)C2 (centres undefined) | inconclusive: 31.6 µM [inhibitor, single point] | – |
| O=C(CCc1nc(-c2ccccc2F)no1)Nc1ccc(Oc2ccccc2)cc1 | active: 3.98 µM | – |
| Cc1cc(Cl)ccc1NC(=O)CCCN1C(=O)CCC1=O | inactive | – |
| CC(C)NCC(O)Cn1c2c(c3ccccc31)CCc1c-2cnn1-c1ccccc1 (centres undefined) | inconclusive: 8.91 µM [activator, partial curve] | – |
| COc1ccc(Nc2nccc(OC)c2C#N)cc1 | inconclusive: 1.26 µM [activator, single point] | – |
| O=c1c(Cl)c(Cl)cnn1Cc1ccc(F)cc1 | inconclusive: 3.16 µM [inhibitor, single point] | – |
| CCCc1cc(C(N)=O)c(NC(=O)c2ccoc2C)s1 | inactive | – |
| CCOc1ccc(N2C(=O)C3Sc4[nH]c(=O)sc4C(/C=C/c4ccccc4)C3C2=O)cc1 (centres undefined) | inconclusive: 31.6 µM [activator, single point] | – |
| COc1ccc(N2C(=O)CC(Sc3nnc(-c4ccccc4)o3)C2=O)cc1 (centres undefined) | active: 25.1 µM | – |
| Brc1cccc(OCCSc2ncccn2)c1 | inconclusive: 15.8 µM [inhibitor, single point] | – |
| COc1ccc(C2C(C(=O)NCCN3CCOCC3)c3ccccc3C(=O)N2C)cc1OC (centres undefined) | inconclusive: 10 µM [inhibitor, partial curve] | – |
| Cc1cccc(NC(=O)c2cc3c([nH]c4ccccc43)c(C)n2)c1C | inactive | – |
| CCn1c(SCC(=O)Nc2nc3ccccc3s2)nc2c(c1=O)SC(C)C2 (centres undefined) | inconclusive: 11.2 µM [inhibitor, single point] | – |
| Cc1cc(Cl)c(OCCOCCN2CCCC(C)C2)c(Br)c1 (centres undefined) | inactive | – |
| Cc1ccccc1-c1cc(C(=O)Nc2nc3c(s2)CCCC3)c2ccccc2n1 | inactive | – |
| O=C(/C=C/c1ccc(S(=O)(=O)N2CCOCC2)cc1)NC(=S)Nc1ccc(Cl)cc1Cl | inconclusive: 31.6 µM [activator, single point] | – |
| Cc1sc(N/N=C/c2cccnc2)nc1-c1ccc(Cl)cc1 | inactive | – |
| CC(NC(=O)c1ccc(Br)cc1)C(=O)NC1=NCCS1 (centres undefined) | inconclusive: 35.5 µM [activator, partial curve] | – |
| CCOC(=O)C1=C(C)NC2=C(C(=O)CCC2)C1c1cn(Cc2ccc(Cl)cc2Cl)nc1-c1ccccc1 (centres undefined) | inconclusive: 10 µM [inhibitor, partial curve] | – |

| SMILES | Potency | activity change, negative = inhibition |
| --- | --- | --- |
| COc1ccc(NC(=O)CSc2nc3c(c(=O)n2-c2ccccc2)SCC3)c(OC)c1 | inconclusive: 1.41 µM [inhibitor, full curve, poor fit] | – |
| CCOC(=O)C1=C(C)N(C)C(=S)NC1c1ccccc1 (centres undefined) | inactive | – |
| CCOC(=O)C1=C(C)OC(N)=C(C#N)C1c1ccccc1 (centres undefined) | – | inactive: 18.3% [at 9.22 µM] |
| Nc1cccc(-c2cn3cccnc3n2)c1 | inactive | – |
| CC(C)(C)OC(=O)N/N=C/c1cn(-c2ccccc2)nc1-c1cccnc1 | inconclusive: 11.2 µM [inhibitor, partial curve] | – |
| CC1CCCCC1NS(=O)(=O)c1ccc(S(=O)(=O)N2CCCC2)cc1 (centres undefined) | inconclusive: 1.78 µM [activator, partial curve] | – |
| CC(C)Nc1nc(-c2ccccn2)nc(-c2ccccc2)c1C#N | active: 3.55 µM | – |
| Cc1ccc(S(=O)(=O)N2CCCC2C(=O)Nc2ccc(O)cc2)cc1 (centres undefined) | inconclusive: 6.31 µM [activator, single point] | – |
| O=c1cc(CN2CCN(Cc3ccccc3)CC2)c2cc3c(cc2o1)CCC3 | – | inactive: 20.2% [at 9.22 µM] |
| Cc1cccc2nc(COc3ccc4ccccc4c3Br)cn12 | – | inactive: -2.21% [at 9.22 µM] |
| CCC/C(O)=C1\C(=O)CCCC1=NCCc1c(C)[nH]c2ccc(OC)cc12 | inactive | – |
| Cc1cc(C)n(-c2nc3ccccc3nc2N2CCN(S(=O)(=O)c3ccc4ccccc4c3)CC2)n1 | inactive | – |
| CN(C(=S)NC(=O)c1ccc(Br)o1)c1ccccc1 | inactive | – |
| CC1=C(C(=O)OCc2ccc3c(c2)OCO3)C(c2ccccc2OCc2ccccc2)NC(=O)N1 (centres undefined) | inconclusive: 31.6 µM [inhibitor, single point] | – |
| Cc1cc(=O)[nH]c(SCCCOc2ccccc2Cl)n1 | inconclusive: 14.1 µM [inhibitor, single point] | – |
| CCc1ccc(NC(=O)c2onc(C)c2Cl)cc1 | inactive | – |
| CCN(CC)c1ccc(N=Cc2ccc([N+](=O)[O-])o2)cc1 | active: 14.1 µM | – |
| COc1ccccc1NS(=O)(=O)c1cccc(C(=O)N/N=C2\CC(=O)CC(C)(C)C2)c1 | inactive | – |
| Cn1c(=O)c2c(ncn2CC(=O)N/N=C/C=C/c2ccco2)n(C)c1=O | – | inactive: -6.95% [at 9.22 µM] |
| O=C(O)c1ccc(-n2c(-c3ccc(Br)cc3)n[nH]c2=S)cc1 | inactive | – |
| Cc1cc(C(=O)CSc2nc3ccc(Cl)cc3[nH]2)c(C)n1CC1CCCO1 (centres undefined) | active: 3.16 µM | – |
| COc1ccc2cc(C(=O)NCc3ccco3)c(=O)oc2c1 | inconclusive: 1 µM [inhibitor, partial curve] | – |
| Cc1cccc(Sc2c([N+](=O)[O-])ncn2C)c1 | inactive | – |
| O=C(NNC(=S)NC1CCCCC1)c1ccc2c(c1)OCO2 | inconclusive: 11.2 µM [inhibitor, partial curve] | – |
| CC1CCCN(c2ccc(F)cc2N)C1 (centres undefined) | inconclusive: 35.5 µM [inhibitor, single point] | – |

| SMILES | Potency | activity change, negative = inhibition |
| --- | --- | --- |
| CCc1cccc(C)c1NC(=O)CN(C)Cc1ccc(Br)cc1 | inconclusive: 22.4 µM [inhibitor, single point] | – |
| CS(=O)(=O)N(CC(=O)N1CCN(Cc2ccc3c(c2)OCO3)CC1)Cc1ccc(Cl)cc1 | – | inactive: 5.67% [at 9.22 µM] |
| CCCCc1cc(=O)oc2cc(C)c(CN3CCCC3)c(O)c12 | inactive | – |
| Cc1cc(C)c(S(=O)(=O)N2CCC(C(=O)NCc3ccc(Cl)cc3Cl)CC2)c(C)c1 | inconclusive: 14.1 µM [inhibitor, single point] | – |
| CCC(CC)C(=O)N1c2ccc(F)cc2CCC1C (centres undefined) | inactive | – |
| Nc1c(Cl)nc(-c2ccccc2)nc1Cl | inconclusive: 0.891 µM [activator, full curve, poor fit] | – |
| Cc1ccc(-c2ccc(CCC(=O)O)n2-c2cccc(O)c2)cc1 | inconclusive: 35.5 µM [activator, single point] | – |
| COC(=O)COc1cccc2c(=O)n(CC(=O)NCc3ccccc3)ccc12 | inconclusive: 5.62 µM [inhibitor, single point] | – |
| Nc1nnc(Cc2ccc(Cl)c(Cl)c2)s1 | active: 5.62 µM | – |
| Cc1cccc(-c2noc(CN(C(=O)c3ccc4c(c3)OCO4)C(C)C)n2)c1 | inconclusive: 31.6 µM [inhibitor, single point] | – |
| CC(C)c1ccc(N2C(=O)CC(Sc3nc4ccccc4o3)C2=O)cc1 (centres undefined) | active: 3.55 µM | – |
| N#Cc1c(NC(=O)COC(=O)C2CC3C=CC2C3)oc(-c2ccccc2)c1-c1ccccc1 (centres undefined) | inconclusive: 11.2 µM [activator, partial curve] | – |
| O=C1C2C3C=CC([C@@H]2C(=O)N1C1CC1)[C@H]1C(=O)N(C2CC2)C(=O)C31 (some centres undefined) | inactive | – |
| COc1ccc(-c2csc(Nc3ccc(S(N)(=O)=O)cc3)n2)cc1OC | inconclusive: 12.6 µM [inhibitor, partial curve] | – |
| COc1cnc(-c2ccccn2)nc1N(C)C | inconclusive: 11.2 µM [inhibitor, partial curve] | – |
| O=C(CCN1C(=O)C2C3C=CC(C3)C2C1=O)N1CC(=O)N(CCc2ccccc2)C(=O)C1 (centres undefined) | inactive | – |
| CCc1ccc(/C=C2\SC(=S)N(CCCC(=O)Nc3nccs3)C2=O)cc1 | inconclusive: 2.24 µM [activator, single point] | – |
| Cc1nc2ccccc2n1CC(=O)NCc1ccccc1 | inconclusive: 20 µM [inhibitor, partial curve, poor fit] | – |
| Fc1ccc(-c2cc3nc4c(c(N5CCOCC5)n3n2)CCCC4)cc1 | inconclusive: 35.5 µM [inhibitor, single point] | – |
| O=C(CNS(=O)(=O)c1ccccc1)OCC(=O)c1cccc([N+](=O)[O-])c1 | inconclusive: 5.62 µM [activator, single point] | – |
| N/C(=N\NC(=O)c1ccc(F)cc1)c1cc2ccccc2oc1=O | inconclusive: 15.8 µM [inhibitor, single point] | – |
| CC1=CC(C)(C)N(C(=O)CSc2nnc(-c3ccccc3)o2)c2ccc(C)cc21 | inconclusive: 15.8 µM [inhibitor, single point] | – |
| COc1cc(N(C(=O)Cc2cccs2)C(C(=O)NC2CCCCC2)c2cccc(OC)c2OC)ccc1-n1cnnn1 (centres undefined) | inconclusive: 35.5 µM [activator, single point] | – |
| COC(=O)C(NS(=O)(=O)c1ccc(NC(C)=O)cc1)C(C)C (centres undefined) | inactive | – |

Record cards (already shown):
`O=C1C2C3C=CC([C@@H]2C(=O)N1C1CC1)[C@H]1C(=O)N(C2CC2)C(=O)C31` (some centres undefined) is entered as Potency: inactive
`CC1=CC(C)(C)N(C(=O)CSc2nnc(-c3ccccc3)o2)c2ccc(C)cc21` is entered as Potency: inconclusive: 15.8 µM [inhibitor, single point]
`CCc1cccc(C)c1NC(=O)CN(C)Cc1ccc(Br)cc1` is entered as Potency: inconclusive: 22.4 µM [inhibitor, single point]
